## Results of single-concentration screens

Amino acid sequences for entries named in this document (tags omitted). Residues count along the entry.
UniProt P9WPC5, whole entry: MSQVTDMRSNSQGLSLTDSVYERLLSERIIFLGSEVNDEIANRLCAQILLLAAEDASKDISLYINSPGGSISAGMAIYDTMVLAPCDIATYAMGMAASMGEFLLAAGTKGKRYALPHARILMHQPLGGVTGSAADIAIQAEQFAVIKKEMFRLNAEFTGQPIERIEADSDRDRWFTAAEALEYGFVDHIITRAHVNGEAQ
UniProt P9WPC3, whole entry partner: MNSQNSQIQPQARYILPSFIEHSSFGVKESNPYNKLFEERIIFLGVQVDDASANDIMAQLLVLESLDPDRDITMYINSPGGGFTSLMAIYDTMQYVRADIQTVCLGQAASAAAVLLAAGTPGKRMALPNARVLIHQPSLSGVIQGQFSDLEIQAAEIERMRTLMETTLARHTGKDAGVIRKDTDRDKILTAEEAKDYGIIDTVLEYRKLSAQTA
UniProt Q8IDJ8, 1-583: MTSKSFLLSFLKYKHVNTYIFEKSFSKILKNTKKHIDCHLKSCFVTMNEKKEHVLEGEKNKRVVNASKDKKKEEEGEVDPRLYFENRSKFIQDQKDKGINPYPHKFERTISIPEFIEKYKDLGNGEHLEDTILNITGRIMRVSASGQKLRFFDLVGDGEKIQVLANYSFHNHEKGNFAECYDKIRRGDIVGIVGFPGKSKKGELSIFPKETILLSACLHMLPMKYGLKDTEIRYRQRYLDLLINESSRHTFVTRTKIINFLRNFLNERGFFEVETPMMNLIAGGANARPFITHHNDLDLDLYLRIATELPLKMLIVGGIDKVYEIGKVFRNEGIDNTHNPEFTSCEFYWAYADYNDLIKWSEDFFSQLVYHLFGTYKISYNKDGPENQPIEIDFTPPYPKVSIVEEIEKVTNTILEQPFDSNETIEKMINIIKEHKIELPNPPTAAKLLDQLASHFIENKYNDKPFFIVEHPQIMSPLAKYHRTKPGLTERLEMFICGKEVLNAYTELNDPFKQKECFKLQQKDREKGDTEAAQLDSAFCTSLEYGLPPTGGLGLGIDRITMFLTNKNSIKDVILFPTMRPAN

Source: ChEMBL document CHEMBL3988442, “University of Dundee, Small-Polar-MMV Screening Library” (2021).

Leishmania in macrophages: 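Cell assay of Leishmania donovani living inside macrophages; the read-out is not stated. Tested at 30 µM. Direction is inferred from retests: higher values go with stronger inhibition. Size under these conditions: about 69,000 compounds, about 1,000 of them at 50% or above in at least one test.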
ClpP1P2: 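Protease assay of ClpP1P2, read by the AMC dye that it sets free. Target: ClpP1P2, Mycobacterium tuberculosis (UniProt P9WPC5 and UniProt P9WPC3). Compounds at 50 µM. Higher reads as stronger inhibition, judged from the few compounds that gave an IC50. Most other retested compounds had strongly negative values. Size under these conditions: about 69,000 compounds, about 10 of them at 50% or above in at least one test.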
Toxoplasma: 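Assay of Toxoplasma gondii numbers, read through their beta-galactosidase reporter with a colour substrate. Compounds at 10 µM. Higher reads as fewer parasites (inferred from which compounds were picked for retests). Of about 67,000 compounds tested this way, about 260 (0.38%) reached 50% or more in at least one test.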
PfKRS1: 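Enzyme assay of the cytosolic lysyl-tRNA synthetase in 384-well plates, read by luminescence. Target: Lysine-tRNA ligase, Plasmodium falciparum 3D7 (UniProt Q8IDJ8). Concentration: 30 µM. Direction is inferred from only a few compounds that gave an IC50; most scored high, so higher reads as stronger inhibition. Size under these conditions: about 69,000 compounds, about 49 of them at 50% or above in at least one test.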

Results are given as percent effect.
The record does not define 0% and 100%; most values in the screen are far below 50% and negative numbers occur (in some assays of this library far below -100).
This is an unselected part of the compounds tested.
Two or more numbers in one place are separate tests of the same structure; such repeats can differ widely.
A dash means the value is not listed here; it may have been measured.

compound,Leishmania in macrophages,ClpP1P2,Toxoplasma,PfKRS1
Cc1ccc(-c2nc(CNC3CCc4ncnn4C3)no2)cc1 (stereo unspecified),25.43,-32.08,2.059,1.722
Cc1nn(CCCNC(=O)C2CCN(S(C)(=O)=O)CC2)c(Cl)c1Cl,-0.8808,-3.584,7.555,-0.1527
Clc1cc(Cl)cc(OCCN2CCC(n3cncn3)CC2)c1,10.46,-47.66,8.496,-2.161
Cn1cc(-c2ncc(C(=O)NCCCn3ccccc3=O)s2)cn1,-8.22,8.586,7.093,4.895
Cn1ccnc1-c1nc(N2CCCCC2)ncc1-c1ccccc1F,28.74,-14.4,-22.38,1.096
CN1CCOC(CNCC(=O)NCCCc2ccccc2)C1 (stereo unspecified),-12.16,11.24,-2.524,0
COc1cc(CN(C)C(=O)NCc2ccccn2)ccc1SC,0.853,-3.889,-0.05774,-0.8249
O=C(C1CCC1)N1CCN(c2snc3ccccc23)CC1,-3.919,13.71,-3.431,-2.178
COc1ccc(NC(=O)COc2nn(C)c3nc(C)cc(C)c23)cn1,17.12,17.56,3.822,1.054
O=C(O)C(F)(F)F.[H][C@@]12CCN(C3CCCC3)C[C@@]1([H])[C@H](C(=O)NC1CCC1)CCO2,14.65,-,1.183,-
CCN1CCN(C)C(=O)C12CCN(Cc1csc(C)n1)CC2.O=C(O)C(F)(F)F,28.38,-,-9.088,-
CC1COCCN1Cc1nc(-c2cccc(C(F)(F)F)c2)no1 (stereo unspecified),23.09,7.949,-17.78,-0.5243
[H][C@@]12CCC(=O)N(CCc3c[nH]cn3)[C@]1([H])CCN(Cc1cccnc1)C2,-34.29,-,0.903,-
Cl.NCC(=O)N1CCCC1c1n[nH]cc1-c1ccccc1F (stereo unspecified),11.24,-,-0.5168,-
CC(C)(C)c1ncc(C(=O)NCc2cccc(C(=O)N3CCCC3)c2)s1,-36.25,-0.3087,-4.421,3.599
O=C(O)C(F)(F)F.O=C(O)C(F)(F)F.[H][C@]12CCC(=O)N(c3cccnc3)[C@@]1([H])CCN2c1ncc(F)cn1,-10.49,-,9.521,-
CCc1cnc2c(c1Nc1ccc(OC)cc1)c(=O)n(C)c(=O)n2C,-28.93,8.076,-0.2217,-0.7846
CCOCCC(=O)N1Cc2cnc(-c3ccccc3)nc2C1,20.81,4.054,2.761,10.06
Cc1nc(C)c(CC(=O)N2C[C@@H](C(=O)O)[C@H](c3ccncc3)C2)s1,-5.965,-1.052,1.645,0.9101
CCC(CN1CCN(C)CC1)NC(=O)C1(c2cccc(F)c2)CC1.O=C(O)CC(O)(CC(=O)O)C(=O)O (stereo unspecified),-16.32,-,-4.899,-
Cc1cnc(N)c(C(=O)C2CCN(C(=O)c3ccccc3F)CC2)c1,3.978,-12.47,-4.16,-3.634
Cc1cccc(-n2c(C)cc(=O)[nH]c2=O)c1C,17.15,-2.706,13.75,2.758
CC(=O)NCc1noc2c1CN(CCN1CCCC1)CC2.O=C(O)C(F)(F)F.O=C(O)C(F)(F)F,21.81,-,-1.862,-
CCn1ncc(C(=O)N2CCCN(CCCc3ccccc3)CC2)c1C,4.364,-3.088,9.866,0.4191
O=C(CS(=O)(=O)c1ccc(Cl)cc1)NC1CCCc2ccccc21 (stereo unspecified),22.89,7.277,-11.09,8.568
O=C(NCC1(CO)CC1)c1ccccc1C(F)(F)F,24.05,-2.517,-26.02,1.613
CSCC(=O)N1CCCN(c2ccncc2C)CC1,10.51,-9.727,12.14,-2.933
O=C(CCN1CCOC(Cn2cccn2)C1)NC1CCCCC1 (stereo unspecified),2.475,-28.59,-1.636,1.889
CN(Cc1ccccc1NCc1cccnc1)C(=O)c1cccs1,-4.248,-11.26,-2.556,0.01088
O=C(Cc1ccccn1)N1C[C@@H]2CC[C@H](C1)N(Cc1ccccc1)C2=O,-,-2.723,-,-2.868
CCN(CC)S(=O)(=O)N1CCCC1CC(=O)c1cccs1 (stereo unspecified),-7.323,-6.454,-1.087,0.1816
O=C(c1cncs1)N1CCOC(c2cc(CCO)[nH]n2)C1 (stereo unspecified),33.54,4.585,-20.63,0.5122
NC(=O)c1ccc(N2CCCCC2)c(NC(=O)c2ccc(F)cc2F)c1,-0.5256,1.189,-9.285,6.008
CN1CCN(Cc2cnc3n2CCN(CCc2ccccc2)C3)CC1.O=C(O)C(F)(F)F.O=C(O)C(F)(F)F.O=C(O)C(F)(F)F,-6.075,-,25.74,-
COc1ccccc1OCCNC(=O)N1CCC(n2cncn2)CC1,13.5,7.501,-1.007,1.212
Cc1nn(C)cc1-c1cc(C(F)(F)F)nn1CCC#N,-3.827,-18.5,-9.886,4
CCOCCCNCc1cc(O)c2cc(C)ccc2n1,12.76,5.683,-6.066,-0.7168
COCc1noc(CN2C(=O)OC[C@@H]2C(C)C)n1,-23.73,-15.16,-9.646,2.254
Cc1ccc(C)c(CS(=O)(=O)CC(=O)NC(C)c2ccc(F)cc2F)c1 (stereo unspecified),22.99,8.568,-0.477,4.117
CCn1cc(NC(=O)C2CCN(Cc3nc(C)c(C)s3)CC2)cn1,20.46 and 1.393,-19.1,-22.56,4.701
Cc1cccc(CN2CCc3c(nc(N4CCCCC4C)[nH]c3=O)C2)n1 (stereo unspecified),-4.714,-0.1138,-5.958,9.163
Cc1c(Cl)c(CN2CCCC2Cn2cncn2)nc2ccccc12 (stereo unspecified),34.86,-10.55,1.042,6.082
CC(C)CCNC(=O)c1ccc2c(=O)n(-c3ccccc3)cnc2c1,13.45 and 3.902,-15.71,-0.5102,0.6448

Some entries from above, unchanged:

| compound | Leishmania in macrophages | ClpP1P2 | Toxoplasma | PfKRS1 |
|---|---|---|---|---|
| `COCc1noc(CN2C(=O)OC[C@@H]2C(C)C)n1` | -23.73 | -15.16 | -9.646 | 2.254 |
| `Cc1ccc(-c2nc(CNC3CCc4ncnn4C3)no2)cc1` (stereo unspecified) | 25.43 | -32.08 | 2.059 | 1.722 |